# Laboratory results from patent publication US20200289645A1, “TREATMENTS AND METHODS FOR CONTROLLING HYPERTENSION” (Georgetown University, priority 2017, published 2020).
# At least one compound was matched to its structure with a doubt left.
# System: conscious transgenic mice
# Assay: Mean arterial pressure (MAP) by telemetry in conscious conditional BP1 transgenic mice
# Assay type: in vivo
# Conditions: night time MAP
# Method: FIG. 2 depicts the effect of conditional expression of the BP1 transgene and of inhibitors on mean arterial pressure (MAP) and heart rate (HR). 2A, 2B, Circadian changes in MAP (A) and HR (B) by telemetry of conscious mice. Averages for 10 days before (BP1 OFF, open symbols) and 10 days after the induction of the BP1 transgene (BP1 ON, closed symbols) relative to the 24 hour clock time. Dark and light periods are indicated. Mean±SEM values (for n=10 time points) from one representative animal (total n=6). P<0.0001 by non-linear regression analysis and ANOVA. 2C, Effect of induction of BP1 transgene expression on night time MAP. Gene expression was induced by switching from a tetracycline containing to a regular chow (+DOX to −DOX; open and filled circles). Non-transgenic littermates (non-TG; triangles) were subjected to the same diet schedule. Mean±SEM of night time MAP; n=6 per group. ANOVA analysis of BP1 ON versus OFF or versus control group. ***, P<0.0001. 2D, 2E, Effect of treatment with candesartan (D) or tempol (E) on night time MAP of animals with the BP1 transgene OFF or ON. Mean±SEM; n=5 per group. *, P<0.05; **, P<0.01; ***, P<0.0001 by ANOVA.
# To test the effect of conditional expression of BP1, mean arterial pressure (MAP) was monitored by telemetry in conscious transgenic mice. Under control conditions (BP1 OFF) there was a circadian rhythm of MAP that varied by 20 mm Hg between periods of activity (night time) and rest (day time). A sinus wave function described the day/night variation of the data (FIG. 2A). […] This overall increase in MAP coincided with a significant decrease in the heart rate and a dampened amplitude of circadian regulation (FIG. 2B). The increase of blood pressure occurred within two days of a switch to the tetracycline-free, regular diet in parallel with the induction of the BP1 transgene (FIG. 2C).
# The increase in MAP and decrease in heart rate after induction of BP1 expression (FIG. 2A,B) was reminiscent of an angiotensin-like vasopressor effect that depends on reactive oxygen species (ROS) signaling. […]
smiles,measurement,setting,value
CCOc1nc2cccc(C(=O)O)c2n1Cc1ccc(-c2ccccc2-c2nnn[nH]2)cc1 [Candesartan],effect on basal MAP,BP1 OFF,reduced basal MAP
same,effect on increase of MAP after BP1 induction,,prevented the increase of MAP after BP1 induction
same,effect on increase of MAP after BP1 induction,listed as candesartan,prevented
